Some of these results come from one statement about several compounds together.
Columns and labels:
Format in all cases: physicochemical
[1] = Equilibrium solubility in pH buffers (pH 4.0-6.0) with pH adjustment; settings: 50 mM pH 4.0-6.0 buffers with pH adjustment, RT
Method: In details, ˜5 mg of solids were suspended into 1 mL of each medium with dosing conc. at ˜5 mg/mL. Additional solids were added into the sample to generate suspension if clear solution was obtained. The suspension was equilibrated via stirring (1000 rpm) for 24 hours. The pH of the suspension was adjusted when the final pH shifted above 0.3, and the samples were stirred for another 1.5 hours after pH adjustment. The suspension was centrifuged to obtain precipitate and supernatants. Solubility, purity and pH were tested for the supernatants after filtration, and isolated precipitate was tested by XRPD. […]

[2] = Equilibrium solubility in pH buffers (3.0-8.0), 20% captisol and water; settings: 50 mM pH buffers pH 3.0-8.0, RT, 24 hrs
Method: Additional solids were added into the sample to generate suspension if clear solution obtained. The suspension was equilibrated via stirring (1000 rpm). The suspension was centrifuged to obtain precipitate and supernatants.
Solubility and pH were tested for the supernatants after filtration, and isolated precipitate was tested by XRPD.
• 1. pH=3.0 buffer (50 mM HCl+KCl): Weigh 365.39 mg KCl into a 100 mL volumetric flask (VF), and add 0.1 mL 1M HCl into the VF, and dilute to volume with water. • 2. pH=4.0 buffer (50 mM citrate): Weigh 56.74 mg citric acid and 60.18 mg trisodium citrate into a 10 mL volumetric flask, and dilute to volume with water. • 3. pH=5.0 buffer (50 mM citrate) Weigh 11.12 mg citric acid and 95.38 mg trisodium citrate into a 10 mL volumetric flask, and dilute to volume with water. • 4. pH=6.0 buffer (50 mM citrate) Weigh 11.04 mg citric acid and 130.2 mg trisodium citrate into a 10 mL volumetric flask, and dilute to volume with water. • 5. pH=6.0 buffer (50 mM phosphate) Weigh 8.7 mg Na2HPO4 and 52.6 mg NaH2PO4 into a 10 mL volumetric flask, and dilute to volume with water. • 6. pH=7.0 buffer (50 mM phosphate) Weigh 23.47 mg Na2HPO4 and 43.34 mg NaH2PO4into a 10 mL volumetric flask, and dilute to volume with water. • 7. pH=8.0 buffer (50 mM phosphate) Weigh 31.64 mg Na2HPO4 and 67.18 mg NaH2PO4into a 10 mL volumetric flask, and dilute to volume with water.

[3] = Thermodynamic relationships study: slurry competition in acetone/H2O systems; settings: RT
Method: Slurry competition was conducted in acetone/H2O systems with various water activities (0.0-1.0). […] Solids were separated and tested by XRPD.
To measure the solubility of freeform in acetone/H2O systems with various water activities, the above experiments were re-performed with addition of aw=0.3 acetone/H2O system. The suspension sample was centrifuged to obtain precipitate and supernatants. Solubility was tested for the supernatants after filtration, and isolated precipitate was tested by XRPD.
Solids were separated and tested by XRPD.

| SMILES | solubility in pH buffers (overall bound) [1] | solubility in pH buffers (overall bound) [2] | water activity (aw) at which the form was obtained [3] |
| --- | --- | --- | --- |
| CC(=O)NCC1CCN(Cc2cc(Oc3ccc(N4CCN(CCC(=O)O)CC4)nc3)nc(-c3cc(Cl)cc(Cl)c3)c2)CC1 [Sulfate Type B] | < 6.8 mg/mL | < 8 mg/mL | – |
| CC(=O)NCC1CCN(Cc2cc(Oc3ccc(N4CCN(CCC(=O)O)CC4)nc3)nc(-c3cc(Cl)cc(Cl)c3)c2)CC1 [Freeform Type A] | – | – | above 0.3 |

Reference: patent US20240307374A1, “FORMULATION OF FURIN INHIBITOR FOR INHALATION” (BP ASSET V, INC., priority 2021, published 2024)
